According to publication PMC10315715:
Results are given in words; binding and its absence hold for the method and conditions named. Binding seen in cells or lysates may run through a third protein. Some binding calls cover weakened binding; strength is not graded here.

Amino acid sequences for entries named in this document (tags omitted).
UniProt P01106: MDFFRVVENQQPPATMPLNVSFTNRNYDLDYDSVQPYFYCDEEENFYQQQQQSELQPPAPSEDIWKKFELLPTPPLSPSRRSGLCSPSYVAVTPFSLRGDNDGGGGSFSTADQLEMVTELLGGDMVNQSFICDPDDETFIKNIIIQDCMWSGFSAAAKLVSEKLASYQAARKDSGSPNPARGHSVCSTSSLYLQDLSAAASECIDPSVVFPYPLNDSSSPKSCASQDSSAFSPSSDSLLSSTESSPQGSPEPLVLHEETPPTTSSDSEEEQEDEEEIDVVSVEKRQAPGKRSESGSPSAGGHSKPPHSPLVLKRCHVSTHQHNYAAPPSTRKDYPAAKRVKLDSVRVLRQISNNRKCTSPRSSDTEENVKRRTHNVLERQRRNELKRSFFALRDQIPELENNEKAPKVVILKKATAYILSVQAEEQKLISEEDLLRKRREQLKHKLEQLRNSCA
UniProt Q9BYV6: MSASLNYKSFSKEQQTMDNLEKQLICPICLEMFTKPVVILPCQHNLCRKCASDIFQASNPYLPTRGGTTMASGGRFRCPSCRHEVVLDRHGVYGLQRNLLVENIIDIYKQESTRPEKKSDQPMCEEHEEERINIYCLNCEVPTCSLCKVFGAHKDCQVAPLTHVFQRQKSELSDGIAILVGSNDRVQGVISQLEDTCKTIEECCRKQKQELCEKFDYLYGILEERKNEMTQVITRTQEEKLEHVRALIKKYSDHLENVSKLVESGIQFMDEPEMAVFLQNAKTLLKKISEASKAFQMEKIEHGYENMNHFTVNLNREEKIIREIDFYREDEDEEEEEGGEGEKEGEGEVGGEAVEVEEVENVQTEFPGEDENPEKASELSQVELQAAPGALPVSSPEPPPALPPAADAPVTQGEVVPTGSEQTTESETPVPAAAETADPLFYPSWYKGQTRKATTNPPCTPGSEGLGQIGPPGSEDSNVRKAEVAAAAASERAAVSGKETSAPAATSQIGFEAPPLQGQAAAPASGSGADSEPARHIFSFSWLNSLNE

What was measured:
[1] = biological target: His-tagged c-Myc (UniProt P01106); assay: co-IP; HEK-293 T cells transfected with HA-TRIM55 and His-c-Myc; IP with anti-HA or anti-His antibody; western blot
[2] = biological target: endogenous c-Myc (human (endogenous in SW620 and SW480)) (UniProt P01106); assay: co-IP; SW620 or SW480 cell lysate; IP with anti-TRIM55 (4°C overnight, protein A/G beads) or anti-c-Myc antibody; western blot

In the case of “HA-tagged TRIM55 (Tripartite motif containing 55) (from UniProt Q9BYV6 1-548)”, the binding [1] is reported as “binds”.

“TRIM55 (Tripartite motif containing 55) in SW620 and SW480 cells (from UniProt Q9BYV6 1-548)” was tested, and the binding [2] was “binds”.
